The text below walks through data of PubChem BioAssay AID493014 (National Center for Advancing Translational Sciences (NCATS), 2011).

This is one part of the list. These are further read-outs of the screen, such as a control signal, another cell line or another target. No call is given for them. The list favours compounds with an active or inconclusive main result. Potencies come from curve fits of mixed quality, noted in brackets.

This assay can be described thus: qHTS Assay to Find Inhibitors of Chronic Active B-Cell Receptor Signaling. The note with it: ABC-DLBCL IkBa-CBG/CBR reporter, luminescence ratio (green luciferase fused to IkBa over red control in TMD8 lymphoma cells), 4 h. The method, boiled down:
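Concentration-response series (up to 46 uM) were applied to TMD8 dual-reporter cells for 4 h at 37C with doxycycline. Green/red ratio, after filter-overlap correction, defined %Activity; red signal alone was normalised to basal cells and zero luminescence.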
On the technique in general: In qHTS, concentration-response curves come from the screen itself.

Setting [1] is: measured here: CBR red luminescence, cell number.
Setting [2] is: measured here: IkBa-CBG green luminescence.

By AC50 is commonly meant the concentration at which the activity in the assay is half-maximal. As for `CC1CC(=O)C2=C(C1)Nc1ncnn1C2c1ccccc1` (centres undefined), under setting [1], the AC50 was 32.6 µM [falling, single point].
Still for that read-out and setting: to `COC(=O)Cc1ccc2c3ccccc3n(C)c2c1` belongs 14.1 µM [rising, single point].
Take `C=CCc1ccccc1OCC(O)CN1CCN(CCN2C(=O)c3cccc4cccc(c34)C2=O)CC1` (centres undefined): under setting [1], the AC50 is 2.31 µM [rising, partial curve, poor fit].
As to `COc1ccc(CCNC(=O)c2ccc([N+](=O)[O-])cc2)cc1`, the AC50 under setting [1] was 35.5 µM [rising, single point].
As to `Cc1ccc(C2C3=C(Nc4[nH]n(-c5ccccc5)c(=O)c42)c2ccccc2C3=O)cc1` (centres undefined), the AC50 under setting [2] was 23.1 µM [rising, partial curve, poor fit].
On to `COc1ccccc1CNc1ncc(-c2ccc(F)cc2)n1C`, for which, under setting [1], the AC50 was 14.1 µM [falling, partial curve, poor fit].
Still for that read-out and setting: to `COc1ccc(C(Nc2cc(C)ccn2)c2ccc3ccc(C)nc3c2O)cc1` (centres undefined) belongs 12.6 µM [falling, partial curve]; to `Cc1ccc(NC(=O)C(=O)NCC2CCCO2)cc1C` (centres undefined), 14.1 µM [falling, partial curve].
As to `Cc1ccc(C(=O)Nc2ccccc2C(=O)NC(Cc2ccccc2)C(=O)O)cc1` (centres undefined), the AC50 under setting [1] was 15.8 µM [falling, single point].
Still for that read-out and setting: next, `CCN(CCCNC(=O)c1cc2cc3ccc(OC)cc3nc2s1)c1ccccc1`: 18.4 µM [rising, single point]; `Cc1cc(C)n(C(=O)c2cc3sccc3[nH]2)n1`: 23.1 µM [rising, partial curve, poor fit]; `CCOc1cc(CNCc2ccccc2)ccc1OCc1ccc(Cl)cc1`: 7.08 µM [falling, partial curve, poor fit].
On the same count and under the same terms, to `Cc1ccc(Cl)cc1NC(=O)C1C2CCC(O2)C1C(=O)O` (centres undefined) belongs 15.8 µM [rising, single point].
Regarding `O=C(NCCCc1ccccc1)c1ccc(CS(=O)Cc2ccc(Cl)cc2)o1` (centres undefined), the concentration at half-maximal activity (AC50) under setting [1] is 20 µM [falling, single point].
Still for that read-out and setting: to `CNC(=O)c1c(NC(=O)c2cccc(C)c2)sc2c1CCC2` belongs 10 µM [falling, partial curve].
Turning to `Cc1ccc(NC(=O)CSc2nncs2)cc1Cl`, the AC50 under setting [1] is 5.8 µM [rising, single point].
Same read-out and setting: next, `CC1(C)CC(CC(=O)O)(c2ccc(Cl)cc2)CCO1` (centres undefined): 0.326 µM [falling, full curve, poor fit]; `CCCc1cc(C(=O)Nc2ccc(CC)cc2)no1`: 0.251 µM [rising, full curve, poor fit].
Take `COc1ccccc1C(CNC(=O)c1oc2ccccc2c1C)N1CCCC1` (centres undefined): the AC50 under setting [1] is 11.6 µM [falling, partial curve].
On the same count and under the same terms, to `Cc1sc2ncnc(N3CCC(C(=O)N(CC(C)C)c4nc5ccccc5s4)CC3)c2c1C` belongs 25.9 µM [rising, single point].
In the case of `Cc1cc(C(F)F)n2nc(C(=O)Nc3ccccc3Br)nc2n1`, the AC50 under setting [1] is 2.59 µM [falling, partial curve, poor fit].
The same measure, in the same setting: next, `COc1ccccc1NC(=O)CSc1nnc(-c2ccccn2)n1Cc1ccco1`: 35.5 µM [falling, single point]; `Cc1nnc(SCC(=O)N2CCN(S(=O)(=O)c3ccc(Cl)cc3)CC2)[nH]c1=O`: 0.1 µM [rising, full curve, poor fit]; `Cc1ccc2oc(-c3cccc(NC(=O)Cn4cnc5c(=O)n(C)c(=O)n(C)c54)c3)nc2c1`: 2.82 µM [rising, full curve].
On to `COc1ccc(NC(=O)CSc2nnc(N)n2CC(=O)Nc2ccc(OC)cc2)cc1`, for which the AC50 under setting [1] is 7.08 µM [rising, full curve].
For `Cn1ccc(C(=O)OCC(=O)Nc2cccc3ccccc23)n1`, the AC50 under setting [1] was 11.2 µM [falling, partial curve].
Same read-out and setting: to `COC(=O)c1cc(Cn2nc(C(=O)O)c3ccccc3c2=O)oc1C` belongs 3.16 µM [falling, single point].
Turning to `C=CCn1nnc2sc3c(c2c1=O)CCC(C)C3` (centres undefined), the AC50 under setting [1] is 29.1 µM [rising, single point].
On to `CCN(CC(=O)Nc1c(F)cccc1F)C(=O)c1ccc2c(c1)OCO2`, for which, under setting [2], the AC50 was 32.6 µM [rising, partial curve, poor fit].
For `Cc1cc(-c2nnc(CCC(=O)N(C)C(C)c3cccs3)o2)no1` (centres undefined), under setting [1], the AC50 is 3.98 µM [rising, partial curve, poor fit].
Still for that read-out and setting: next, `CN(CC(=O)Nc1ccccc1Cl)CC(=O)Nc1ccccc1[N+](=O)[O-]`: 6.31 µM [rising, partial curve]; `O=C(NC(=S)NNC(=O)c1cccs1)c1ccco1`: 5.01 µM [falling, partial curve]; `CCCCCC(O)c1cccc(OCc2ccc3ccccc3n2)c1` (centres undefined): 1.84 µM [rising, full curve, poor fit].
As for `Oc1cccc(C=NCc2ccccc2)c1O`, under setting [1], the AC50 was 0.651 µM [rising, partial curve].
On the same count and under the same terms, to `CCNS(=O)(=O)c1ccc(C(=O)OCC(=O)N2CCCc3ccccc32)cc1` belongs 10.3 µM [rising, partial curve]; to `COCCn1nnnc1C(c1cc2c(C)cc(C)cc2[nH]c1=O)N1CCCCCC1` (centres undefined), 11.6 µM [falling, partial curve, poor fit]; to `Cn1c(CN2CCCCC2)nc2cc(NC(=O)c3ccc(F)cc3)ccc21`, 17.8 µM [falling, partial curve, poor fit].
Still for that read-out and setting: next, `Cc1ccc(NC(=O)c2ccc(Cl)c(S(=O)(=O)NCC3CCCO3)c2)c(O)c1` (centres undefined): 6.31 µM [falling, single point]; `CCOC(=O)c1c(C)[nH]c(C)c1C(=O)COC(=O)CNC(=O)C1CCCCC1`: 14.1 µM [rising, single point]; `CS(=O)(=O)N(Cc1ccco1)Cc1ccccc1Cl`: 0.103 µM [rising, full curve, poor fit].
Same read-out and setting: to `CCN(CC)S(=O)(=O)c1ccc(C(=O)NCc2n[nH]c(=S)n2-c2ccc(Cl)c(Cl)c2)cc1` belongs 2.51 µM [rising, full curve]; to `CCCn1c(C(O)c2ccc(OC)cc2)nc2ccccc21` (centres undefined), 10.3 µM [rising, partial curve, poor fit]; to `C=CCNC(=O)c1ccc(-c2nc(-c3ccccc3)cs2)cc1`, 7.31 µM [rising, partial curve, poor fit].
Regarding `COc1cccc(-c2coc3c(C)c4oc(=O)c(CCC(=O)O)c(C)c4cc23)c1`, under setting [1], the AC50 is 15.8 µM [falling, single point].
The same measure, in the same setting: to `Cc1occc1C(=O)NNC(=S)Nc1cccc([N+](=O)[O-])c1` belongs 22.4 µM [falling, single point]; to `O=C1C=C(Nc2ccccc2)C(=O)c2ccccc21`, 1.12 µM [falling, full curve, poor fit].
For the molecule `Nc1nnc(CC(=O)N/N=C/c2ccccc2OCc2ccc(F)cc2)s1`, under setting [1], the AC50 was 20 µM [falling, single point].
Regarding `COc1ccc([N+](=O)[O-])cc1N(CC(=O)NC(C(C)C)C(C)C)S(C)(=O)=O`, the AC50 under setting [1] is 35.5 µM [rising, single point].
For `Cc1cc(O)c(C(C)C)cc1C1(c2cc(C(C)C)c(O)cc2C)OC(=O)c2ccccc21`, the AC50 is 17.8 µM [falling, partial curve] under setting [1] and 31.6 µM [rising, partial curve, poor fit] under setting [2].
With `CCOc1ccc(C2c3[nH]c4ccccc4c3CCN2CCCn2cccn2)cc1` (centres undefined), the AC50 under setting [1] was 35.5 µM [falling, single point].
In the case of `N#C/C(=C1/CCCCCN1)c1nc2ccccc2s1`, the AC50 under setting [1] is 1 µM [falling, partial curve, poor fit].
In the case of `CC(C)NC(=O)N(C)C[C@H]1Oc2c(NC(=O)Nc3ccc(C(F)(F)F)cc3)cccc2C(=O)N([C@H](C)CO)C[C@@H]1C`, the AC50 under setting [1] was 6.51 µM [falling, full curve].
As to `CCN(Cc1ccccc1)C(=O)COC(=O)[C@@H]1CCCN1C(=O)c1cccs1`, under setting [1], the AC50 is 7.31 µM [rising, partial curve].
As to `COc1ccc(CN2C(=O)Cc3c2nc(N)c2c(N)nc(N4CCCCC4)c(C#N)c32)cc1`, under setting [1], the AC50 was 0.366 µM [rising, partial curve, poor fit].
On to `CCN(CC)c1ccc(C(=O)OCC(=O)Nc2cccc(S(=O)(=O)NC3=NCCCCC3)c2)cc1`, for which the AC50 under setting [1] is 29.1 µM [falling, single point].
The same measure, in the same setting: next, `Cc1cc2ncn(/N=C/c3ccc([N+](=O)[O-])o3)c2cc1C`: 0.562 µM [falling, full curve, poor fit]; `CCCCCCN1C(=O)CC(NC(=O)OCC2c3ccccc3-c3ccccc32)C/C=C\C1C(C)C` (centres undefined): 20.6 µM [falling, single point]; `O=C(Nc1cccc(S(=O)(=O)N2CCOCC2)c1)c1cc(=O)[nH]c2ccccc12`: 13 µM [rising, single point].
On to `O=C(Oc1ccc(Cl)c2cccnc12)N1CCCCCC1`, for which the AC50 under setting [1] is 18.4 µM [rising, partial curve, poor fit].
With `CCOc1ccc(NC(=O)C(C)Oc2ccc(C#N)cc2)cc1S(=O)(=O)N1CCCC1` (centres undefined), under setting [1], the AC50 is 0.82 µM [rising, full curve, poor fit].
Consider `C/C(=N/NC(=O)c1ccoc1C)c1cccc(NC(=O)C(F)(F)F)c1`, for which, under setting [1], the AC50 was 25.9 µM [falling, partial curve, poor fit].
The same measure, in the same setting: to `CC(C)N(C(=O)COC(=O)c1ccccc1C(=O)c1ccc(Cl)c([N+](=O)[O-])c1)C(C)C` belongs 15.8 µM [falling, partial curve, poor fit]; to `CC(C)(C)N1C(=O)c2ccc(C(=O)Nc3cc(C(=O)O)cc(C(=O)O)c3)cc2C1=O`, 22.4 µM [falling, single point].
